# Laboratory results from PubChem BioAssay AID504467 (National Center for Advancing Translational Sciences (NCATS), 2011).
# Among all 330,000 compounds or so, about 7,700 (2.3%) were called active. The shares of active, inactive and inconclusive entries below differ from those in the screen. Calls follow the shape of the dose curve; as a rule, active = well fitted inhibition curve with a large enough effect; inconclusive = small, poorly fitted or top-dose-only effect, or effect the other way; inactive = flat fitted curve, though single readings scatter. Potencies beside an inconclusive call are fits to weak or partial responses and may not hold up.
# Assay: qHTS screen for small molecules that inhibit ELG1-dependent DNA repair in human embryonic kidney (HEK293T) cells expressing luciferase-tagged ELG1; also: nearly all actives have a fitted effect of over 55% in size
# Details: HEK293T ELG1-luciferase reporter, luminescence, 16 h, DNA damage induced by 5-fluorouridine; activity change, negative = inhibition: at 46.1 µM (top of the series)
# Method in brief: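 Step one: seed 2,000 cells per well. Step two: pin-transfer compound or DMSO alongside 5-fluorouridine. Step three: incubate 16 hr, 37 °C, 5% CO2. Step four: add ONE-Glo, wait 30 min, read luminescence.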
# % is scaled to controls: 0 for no effect and ±100 for the full control effect; potency is read from the fitted curve at half-maximal effect.
Structure (SMILES),Potency,"activity change, negative = inhibition"
Cc1ccc(S(=O)(=O)N2CCN(c3nn(C)c(=O)n(C)c3=O)CC2)cc1C,"inconclusive: 17.8 µM [inhibitor, partial curve, poor fit]",–
O=C(c1ccc(Cl)cc1)C1CCN(C(=O)c2ccccc2)CC1,"inconclusive: 29.1 µM [inhibitor, single point]",–
CCC(C)(C)C1CCc2[nH]nc(C(=O)NCCCNC(=O)OC(C)(C)C)c2C1 (centres undefined),"inconclusive: 31.6 µM [inhibitor, single point]",–
CNC(=O)c1ccc(CNC(=O)OCc2ccccc2)cc1,"inconclusive: 16.4 µM [activator, single point]",–
COC(=O)CNC(=O)COC(=O)/C=C/c1ccc(F)cc1,–,inactive: 6.83%
Cc1cccc(C)c1NC(=O)c1cnn(-c2ccccc2)c1C,–,inactive: -0.291%
N#Cc1ccccc1OCc1nnc(-c2ccccc2Br)o1,"inconclusive: 8.2 µM [activator, partial curve]",–
Oc1ccc(/C=N/Nc2ccc3ccccc3c2)c(O)c1,"inconclusive: 20.6 µM [activator, single point]",–
CN(C)c1ccc(/C=N/NC(=O)c2ccco2)cc1,"inconclusive: 2.31 µM [activator, full curve]",–
CCNC(=O)OCC(CC)NC(=O)OCC(C)C (centres undefined),–,inactive: -0.0517%
O=c1c(Br)c(Br)cnn1-c1ccccc1,"inconclusive: 18.3 µM [inhibitor, single point]",–
CCC(C)c1ccccc1NC(=O)COc1ccc(-c2nnco2)cc1 (centres undefined),–,inactive: 15.1%
COc1ccccc1CCNC(=O)C(=O)NCC1CCCN1S(=O)(=O)c1ccccc1 (centres undefined),active: 4.11 µM,–
Cn1cnc([N+](=O)[O-])c1Oc1cccc(O)c1,–,inactive: 5.89%
O=C(COC(=O)c1cc(S(=O)(=O)Nc2ccccc2Cl)ccc1O)Nc1nc2ccccc2s1,"inconclusive: 0.82 µM [inhibitor, single point]",–
CCn1c(COc2cccc(C)c2C)nnc1SCC(=O)Nc1cc(C)on1,–,inactive: -12.7%
COc1cc(F)ccc1CN1CCC(C(=O)Nc2ccc(Oc3ccccc3)nc2)CC1,–,inactive: -8.92%
COc1ccc(NC(=O)c2ccc(-c3ccc(-c4noc(C)n4)cc3C)cc2)cc1N1CCN(C)CC1,"inconclusive: 14.1 µM [inhibitor, single point]",–
Cc1cccc(CC(=O)Nc2cc(=O)n(C)c(=O)n2C)c1,"inconclusive: 1.16 µM [inhibitor, single point]",–
OCC1(CCc2ccccc2)CCN(Cc2cc(Cl)ccc2O)CC1,–,inactive: 9.4%
Cc1ccc(CNC(=O)CSc2nc3ccccc3[nH]2)cc1,–,inactive: 18.6%
COc1ccc(-n2cnnc2SCC(=O)Nc2cc(S(=O)(=O)N3CCCCC3)ccc2C)cc1,"inconclusive: 29.1 µM [inhibitor, single point]",–
C=CCn1c(COc2ccc(F)cc2)nnc1SCC(=O)c1c[nH]c2c(CC)cccc12,–,inactive: 3.87%
O=C(NC(=S)N1CCN(c2ccc(O)cc2)CC1)c1cccs1,active: 13 µM,–
C/C(=N\Nc1cccc2cccnc12)c1ccccc1O,"inconclusive: 5.17 µM [activator, full curve]",–

Structure (SMILES),Potency,"activity change, negative = inhibition"
CCOC(=O)CNc1c(-c2ccc(OC)cc2)nc2ccc(Cl)cn12,"inconclusive: 18.4 µM [activator, partial curve]",–
CC(C)(C)c1ccc(S(=O)(=O)NCc2ccc(C(=O)NCc3ccccn3)cc2)cc1,–,inactive: 3.81%
CN(C)c1ccc(NC(=O)c2cnsn2)cc1,"inconclusive: 1.64 µM [activator, full curve]",–
CCc1sc(C(=O)Nc2ncccc2O)cc1C,"inconclusive: 9.2 µM [activator, partial curve]",–
COCCNC(=S)N(CCc1c(C)[nH]c2ccc(F)cc12)Cc1ccc(C)cc1,"inconclusive: 20.6 µM [inhibitor, single point]",–
Cc1ccc(NC(=O)NC(=O)N(c2ccccc2)S(C)(=O)=O)cc1,"inconclusive: 16.4 µM [activator, single point]",–
O=C(Nc1c2c(nn1-c1ccc(F)cc1)CS(=O)(=O)C2)C12CC3CC(CC(C3)C1)C2,–,inactive: -6.73%
Cc1cc(-n2nc(C)cc2C)nc(N)n1,"inconclusive: 32.6 µM [activator, partial curve, poor fit]",–
O=C(CN(c1ccccc1F)S(=O)(=O)c1ccccc1)Nc1ccccc1C(=O)N1CCOCC1,–,inactive: 5.35%
Cc1noc(N)c1C(=O)Nc1ccc(C(C)(C)C)cc1,"inconclusive: 7.31 µM [activator, partial curve]",–
O=C(Oc1c(Cl)cc(Cl)c2cccnc12)c1ccco1,"inconclusive: 23.1 µM [inhibitor, partial curve]",–
O=C(Nc1nc2ccccc2s1)c1ccc(N2CCCCC2)c([N+](=O)[O-])c1,"inconclusive: 2.59 µM [activator, partial curve]",–
COc1nc(OC)nc(N2CCC(C(=O)NCC3CCCCC3)CC2)n1,–,inactive: -7.83%
Cc1ccc(NC(=O)COC(=O)C2(CC(=O)NC(C)C)CCCC2)cc1C,–,inactive: -4.16%
O=C(CCCNC(=O)c1ccc(Cl)cc1)Nc1ccc(F)c(S(=O)(=O)N2CCOCC2)c1,–,inactive: -9.2%
Cc1ccn2c(CN3CCOCC3)c(-c3ccccc3)nc2c1,"inconclusive: 18.4 µM [activator, partial curve]",–
COc1cc(CCC(=O)Nc2ccc(C)c(S(=O)(=O)N(C)C)c2)cc(OC)c1OC,active: 9.2 µM,–
CCc1ccc2c(CN3CCN(S(=O)(=O)c4ccccc4F)CC3)cc(=O)oc2c1,active: 23.1 µM,–
C/C(CC1CC2=C(CC1(C)C)C(C)(C)CCC2)=N\NC(N)=S (centres undefined),"inconclusive: 18.4 µM [inhibitor, partial curve, poor fit]",–
O=C(Nc1ccccn1)c1c(O)c2cccc3c2n(c1=O)CCC3,"inconclusive: 3.26 µM [activator, full curve, poor fit]",–
Fc1ccc(NC(=S)Nc2nccs2)cc1,"inconclusive: 5.17 µM [activator, partial curve, poor fit]",–
O=C(CN1C(=O)NC2(CCCCCC2)C1=O)Nc1ccc([N+](=O)[O-])cc1,–,inactive: 15.8%
CCCCCCCCNC1=CC(=O)CC(C)(C)C1,–,inactive: 4.74%
O=C(Nc1ccccc1N1CCOCC1)c1cccc(S(=O)(=O)Nc2ccccc2F)c1,"inconclusive: 4.11 µM [inhibitor, partial curve, poor fit]",–
CCOC(=O)N1CCN(C(=O)c2ccccc2NC(=O)COc2ccccc2)CC1,"inconclusive: 29.1 µM [inhibitor, single point]",–

Structure (SMILES),Potency,"activity change, negative = inhibition"
O=C1N=C(N2CCOCC2)S/C1=C\c1cccs1,"inconclusive: 20.6 µM [activator, partial curve, poor fit]",–
CCc1nnc(NC(=O)c2ccc3ccccc3n2)s1,"inconclusive: 2.91 µM [activator, partial curve, poor fit]",–
COC(=O)CN1C(c2ccccc2O)Nc2ccc(Br)cc2C1c1ccccc1 (centres undefined),–,inactive: 9.49%
O=C(Nc1ccc(S(=O)(=O)N2CCOCC2)cc1)c1ccc(S(=O)(=O)N2CCOCC2)cc1,–,inactive: 0%
Cc1ccc(NC(=O)c2ccc(S(=O)(=O)N3CCC(C)CC3)cc2)cc1,–,inactive: -14.8%
CCCOC(=O)Cn1cnc2scc(-c3ccc(OC)cc3)c2c1=O,–,inactive: 4.38%
CN(C)C(CNC(=O)c1ccc(S(=O)(=O)Nc2ccccc2F)cc1)c1ccco1 (centres undefined),–,inactive: 12.2%
Cc1onc(-c2ccccc2Cl)c1C(=O)N(Cc1ccccc1)C(C)C,"inconclusive: 29.1 µM [inhibitor, single point]",–
CC(C)N(C(=O)C[n+]1ccsc1N)c1ccccc1,"inconclusive: 9.2 µM [activator, partial curve, poor fit]",–
O=C(NCCc1nc2ccccc2[nH]1)/C(=C/c1ccc2c(c1)OCO2)NC(=O)c1ccc(Cl)cc1Cl,"inconclusive: 18.4 µM [inhibitor, single point]",–
O=C(OCc1c(-c2ccccc2)ncc2ccccc12)c1ccc(Cl)cc1Cl,–,inactive: -8.19%
CCOc1ccc(NC(=O)C2CCCN(c3cnccn3)C2)cc1 (centres undefined),–,inactive: 20.1%
O=C(CCC(=O)N1CCN(c2ccccn2)CC1)c1ccc(Cl)s1,"inconclusive: 23.1 µM [activator, single point]",–
O=[N+]([O-])c1cccnc1N1CCN(c2ccccc2F)CC1,–,inactive: 20.6%
Cc1cc(C(F)(F)F)c(C#N)c(SCC(=O)Nc2nc3cc(Br)ccc3s2)n1,"inconclusive: 9.2 µM [activator, partial curve]",–
O=C(Oc1cccc(/C=N/Nc2nc(Nc3ccccc3)nc(N3CCOCC3)n2)c1)c1ccco1,active: 9.2 µM,–
O=C(N/N=C/c1cc([N+](=O)[O-])ccc1O)c1cccc(NC(=O)c2cccc(Cl)c2)c1,"inconclusive: 2.59 µM [inhibitor, partial curve, poor fit]",–
COc1ccc(N(CC(=O)NCc2ccco2)S(=O)(=O)c2ccc(C)cc2)cc1,–,inactive: -2.41%
C/C(=N/NC(=O)CNc1ccc(C)cc1)c1ccc(Br)s1,"inconclusive: 2.31 µM [inhibitor, partial curve, poor fit]",–
CC(=O)c1ccc(NS(=O)(=O)c2cc3c(cc2C)N(C(C)=O)CCO3)cc1,"inconclusive: 11.6 µM [activator, partial curve, poor fit]",–
N#C/C(=C\c1coc2ccccc2c1=O)C(N)=S,–,inactive: -5.19%
Cc1cccc2cc(CN(CC3CCCO3)C(=S)NCc3ccco3)c(=O)[nH]c12 (centres undefined),active: 18.4 µM,–
CCOC(=O)N1CCN(C(=O)c2ccc(OC(C)=O)cc2)CC1,–,inactive: 14.3%
Cc1ccc(C(=O)NCc2ccco2)c(C)c1,"inconclusive: 20.6 µM [activator, single point]",–

# Quoted at random: 4 entries already listed, in no set order.
Structure (SMILES),Potency,"activity change, negative = inhibition"
Cc1cccc2cc(CN(CC3CCCO3)C(=S)NCc3ccco3)c(=O)[nH]c12 (centres undefined),active: 18.4 µM,–
Cc1cc(C(F)(F)F)c(C#N)c(SCC(=O)Nc2nc3cc(Br)ccc3s2)n1,"inconclusive: 9.2 µM [activator, partial curve]",–
C/C(=N/NC(=O)CNc1ccc(C)cc1)c1ccc(Br)s1,"inconclusive: 2.31 µM [inhibitor, partial curve, poor fit]",–
CCCOC(=O)Cn1cnc2scc(-c3ccc(OC)cc3)c2c1=O,–,inactive: 4.38%
